Values from PubChem BioAssay AID743121 (NCATS, 2013)
Purpose: 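Knock-downs that sensitise breast cancer cells to camptothecin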 (primary screen). Cells: MDA-MB-231 cells, a human breast cancer line. Reagent: single siRNA against human genes, 20 nM siRNA (0.8 pmol per well). Duration: 120 h (drug added 48 h after transfection, read 72 h later). Challenge: camptothecin 20 nM (about EC30) for 72 h; vehicle 0.1% DMSO in parallel plates. Measured: 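CellTiter-Glo ATP signal, scaled to control siRNA as percent viability; sensitisation given as log2 of untreated divided by camptothecin-treated viability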. Scale: log2 vehicle/camptothecin viability: higher = stronger sensitisation to camptothecin; viability with camptothecin: higher = more viable cells. Rule for the call: 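Active genes have an RSA gene-level p-value below 0.001, computed from the ratios of their separate siRNAs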.
Shown is a random part of about 26,000 deposited reagents. 167 of all reagents (0.63%) count as active. 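Calls are per gene from RSA p-values that are not deposited; an individual active-marked siRNA can sensitise only weakly.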 The numbers tell different reagents against one gene apart. Not all columns of the deposit are shown. Reagent sequences are not shown.

no.	gene knocked down	siRNA no.	log2 vehicle/camptothecin viability	viability with camptothecin (% of control)	call
1	TST (thiosulfate sulfurtransferase)	1	-0.445	81.7	inactive
2	TST (thiosulfate sulfurtransferase)	2	-0.151	70.4	inactive
3	TST (thiosulfate sulfurtransferase)	3	-0.341	101	inactive
4	TST (thiosulfate sulfurtransferase)	4	0.667	54.2	inactive
5	MOCS3 (molybdenum cofactor synthesis 3)	1	-0.122	111	inactive
6	MOCS3 (molybdenum cofactor synthesis 3)	2	0.352	43.6	inactive
7	MOCS3 (molybdenum cofactor synthesis 3)	3	-0.0616	126	inactive
8	CLIC3 (CLIC family member 3)	1	0.0324	102	inactive
9	CLIC3 (CLIC family member 3)	2	-0.496	83.2	inactive
10	CLIC3 (CLIC family member 3)	3	-0.384	61.8	inactive
11	INHBA (inhibin subunit beta A)	1	0.121	57.6	inactive
12	INHBA (inhibin subunit beta A)	2	-0.245	69.8	inactive
13	INHBA (inhibin subunit beta A)	3	-0.255	64.4	inactive
14	INHBA (inhibin subunit beta A)	4	0.035	50.3	inactive
15	BUB3 (BUB3 mitotic checkpoint protein)	1	-0.298	39.5	inactive
16	BUB3 (BUB3 mitotic checkpoint protein)	2	-0.268	64.5	inactive
17	BUB3 (BUB3 mitotic checkpoint protein)	3	-0.454	36.9	inactive
18	BUB3 (BUB3 mitotic checkpoint protein)	4	-0.283	87.7	inactive
19	SCO2 (synthesis of cytochrome C oxidase 2)	1	-0.16	29.2	inactive
20	SCO2 (synthesis of cytochrome C oxidase 2)	2	-0.00689	103	inactive
21	SCO2 (synthesis of cytochrome C oxidase 2)	3	-0.226	84.2	inactive
22	SCO2 (synthesis of cytochrome C oxidase 2)	4	-0.382	76	inactive
23	JAG1 (jagged canonical Notch ligand 1)	1	0.0088	102	inactive
24	JAG1 (jagged canonical Notch ligand 1)	2	-0.0331	83	inactive
25	JAG1 (jagged canonical Notch ligand 1)	3	-0.385	37.3	inactive
26	USP35 (ubiquitin specific peptidase 35)	1	-0.296	68.5	inactive
27	USP35 (ubiquitin specific peptidase 35)	2	0.022	78.8	inactive
28	USP35 (ubiquitin specific peptidase 35)	3	-0.442	79.7	inactive
29	USP35 (ubiquitin specific peptidase 35)	4	0.362	61.1	inactive
30	GZMH (granzyme H)	1	-0.00577	62.7	inactive
31	GZMH (granzyme H)	2	-0.123	49.4	inactive
32	GZMH (granzyme H)	3	-0.285	110	inactive
33	GZMH (granzyme H)	4	-0.399	63.1	inactive
34	EEF1AKMT2 (EEF1A lysine methyltransferase 2)	1	0.163	72.7	inactive
35	EEF1AKMT2 (EEF1A lysine methyltransferase 2)	2	0.00462	105	inactive
36	EEF1AKMT2 (EEF1A lysine methyltransferase 2)	3	-0.0604	43.8	inactive
37	EEF1AKMT2 (EEF1A lysine methyltransferase 2)	4	0.526	8.9	inactive
38	AQP6 (aquaporin 6)	1	-0.219	69.6	inactive
39	AQP6 (aquaporin 6)	2	-0.303	51.2	inactive
40	AQP6 (aquaporin 6)	3	0.171	12.6	inactive
41	AQP6 (aquaporin 6)	4	-0.125	74.8	inactive
42	HSD3B2	1	-0.0996	116	inactive
43	HSD3B2	2	-0.136	59.7	inactive
44	HSD3B2	3	-0.222	88.9	inactive
45	ANTXR1 (ANTXR cell adhesion molecule 1)	1	0.131	85.4	inactive
46	ANTXR1 (ANTXR cell adhesion molecule 1)	2	-0.293	58.2	inactive
47	ANTXR1 (ANTXR cell adhesion molecule 1)	3	0.186	65	inactive
48	ANTXR1 (ANTXR cell adhesion molecule 1)	4	-0.0595	111	inactive
49	PPP4C (protein phosphatase 4 catalytic subunit)	1	0.185	61.4	inactive
50	PPP4C (protein phosphatase 4 catalytic subunit)	2	0.449	59.7	inactive
51	PPP4C (protein phosphatase 4 catalytic subunit)	3	-0.065	107	inactive
52	PPP4C (protein phosphatase 4 catalytic subunit)	4	0.0935	76	inactive
53	DUSP14 (dual specificity phosphatase 14)	1	-0.184	93.7	inactive
54	DUSP14 (dual specificity phosphatase 14)	2	-0.359	79.3	inactive
55	DUSP14 (dual specificity phosphatase 14)	3	-0.532	85.5	inactive
56	DUSP14 (dual specificity phosphatase 14)	4	0.0801	49	inactive
57	TM2D2 (TM2 domain containing 2)	1	-0.529	65.9	inactive
58	TM2D2 (TM2 domain containing 2)	2	-0.335	89.4	inactive
59	TM2D2 (TM2 domain containing 2)	3	0.445	57.7	inactive
60	TM2D2 (TM2 domain containing 2)	4	-0.268	41.7	inactive
61	THBS2 (thrombospondin 2)	1	-0.036	65.1	inactive
62	THBS2 (thrombospondin 2)	2	-0.177	101	inactive
63	THBS2 (thrombospondin 2)	3	-0.177	60.4	inactive
64	THBS2 (thrombospondin 2)	4	-0.341	80.5	inactive
65	KIF21B (kinesin family member 21B)	1	-0.231	99.9	inactive
66	KIF21B (kinesin family member 21B)	2	-0.33	69.4	inactive
67	KIF21B (kinesin family member 21B)	3	-0.0504	85.2	inactive
68	KIF21B (kinesin family member 21B)	4	0.189	42.9	inactive
69	TNFRSF21 (TNF receptor superfamily member 21)	1	-0.457	108	inactive
70	TNFRSF21 (TNF receptor superfamily member 21)	2	-0.647	78.1	inactive
71	TNFRSF21 (TNF receptor superfamily member 21)	3	-0.328	95.5	inactive
72	SENP2 (SUMO specific peptidase 2)	1	-0.505	94.5	inactive
73	SENP2 (SUMO specific peptidase 2)	2	-0.187	90	inactive
74	SENP2 (SUMO specific peptidase 2)	3	-0.396	63.4	inactive
75	SENP2 (SUMO specific peptidase 2)	4	-0.119	71.2	inactive
76	PCDH15 (protocadherin related 15)	1	0.114	89.9	inactive
77	PCDH15 (protocadherin related 15)	2	-0.274	69.2	inactive
78	PCDH15 (protocadherin related 15)	3	0.75	19.4	inactive
79	PCDH15 (protocadherin related 15)	4	-0.256	125	inactive
80	TRIM7 (tripartite motif containing 7)	1	0.0184	104	inactive
81	TRIM7 (tripartite motif containing 7)	2	-0.426	23.4	inactive
82	TRIM7 (tripartite motif containing 7)	3	0.276	60.2	inactive
83	TRIM7 (tripartite motif containing 7)	4	-0.233	85.2	inactive
84	TRIM7 (tripartite motif containing 7)	5	-0.0329	102	inactive
85	TRIM7 (tripartite motif containing 7)	6	-0.341	97.4	inactive
86	TRIM7 (tripartite motif containing 7)	7	-0.143	95.4	inactive
87	TRIM7 (tripartite motif containing 7)	8	-0.369	94.2	inactive
